Paper PMC12411611
No constants are given. Whether binding was seen depends on the method and setting. Binding seen in cells or lysates may run through a third protein. Some binding calls cover weakened binding; strength is not graded here.

Chains of the proteins cited; added tags and fusions are not shown.
UniProt Q9Z2D8: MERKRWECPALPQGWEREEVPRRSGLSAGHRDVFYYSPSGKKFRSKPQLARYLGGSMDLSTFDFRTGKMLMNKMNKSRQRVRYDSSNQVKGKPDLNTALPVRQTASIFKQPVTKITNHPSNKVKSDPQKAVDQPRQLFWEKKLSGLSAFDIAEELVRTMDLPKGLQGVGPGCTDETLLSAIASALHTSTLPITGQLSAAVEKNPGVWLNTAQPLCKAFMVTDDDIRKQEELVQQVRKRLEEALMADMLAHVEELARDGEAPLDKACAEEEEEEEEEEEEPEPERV
UniProt Q8K4B0: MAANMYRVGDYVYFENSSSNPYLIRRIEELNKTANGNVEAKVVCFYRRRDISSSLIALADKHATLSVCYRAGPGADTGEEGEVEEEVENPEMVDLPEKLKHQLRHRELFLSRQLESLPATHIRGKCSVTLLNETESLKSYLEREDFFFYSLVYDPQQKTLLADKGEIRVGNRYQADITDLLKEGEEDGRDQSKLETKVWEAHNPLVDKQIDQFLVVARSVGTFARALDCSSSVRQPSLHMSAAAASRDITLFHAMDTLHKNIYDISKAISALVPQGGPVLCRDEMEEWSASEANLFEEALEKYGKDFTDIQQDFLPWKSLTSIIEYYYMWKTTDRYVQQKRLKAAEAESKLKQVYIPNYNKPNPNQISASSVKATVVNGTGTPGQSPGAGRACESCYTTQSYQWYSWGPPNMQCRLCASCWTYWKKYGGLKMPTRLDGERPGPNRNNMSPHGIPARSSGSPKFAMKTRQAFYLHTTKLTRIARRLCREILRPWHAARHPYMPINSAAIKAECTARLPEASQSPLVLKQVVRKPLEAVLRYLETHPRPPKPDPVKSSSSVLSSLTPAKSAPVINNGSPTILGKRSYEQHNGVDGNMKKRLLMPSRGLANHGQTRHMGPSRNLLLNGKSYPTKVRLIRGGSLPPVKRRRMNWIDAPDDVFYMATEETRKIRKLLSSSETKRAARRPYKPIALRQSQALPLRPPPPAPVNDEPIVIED

Target: Mbd3 (as immunoprecipitated with NuRD components) (UniProt Q9Z2D8)
Assay: co-IP; IP of Mbd3 with blots for NuRD components, with and without Wnt3a treatment; IP buffer (50 mM Tris-HCl pH 7.4, 150 mM NaCl, 0.5% Triton X-100, 1% NP-40), Protein A/G beads, immunoblot

For MTA1 (from UniProt Q8K4B0 1-715), the binding was “binds”.
